# Some of the results follow.
# B1: B3GalT2 (Rattus norvegicus) (protein)
# chain: LMLQWRRRHCCFAKMSWNAKRSLFRTHLMGVLSLVFLFAMFLFFNHHDWLPGRPGFKENPVTYTFRGFRSTKTETNQSSLRNIWKEVVPQTLRPQTATNSNNTELSPQGVTGLENTLSANGSIYNEKGTGHPNSYHFKYIINEPEKCQEKSPFLILLIAAEPGQIEARRAIRQTWGNETLAPGIQITRIFLLGISIKLNGYLQHAIQEESIQYHDIIQQEYLDTYYNLTIKTLMGMNWVATYCPHTPYVMKTDSDMFVNTEYLIHKLLKPDLPPRHNYFTGYLMRGYAPNRNKDSKWYMPPDLYPSERYPVFCSGTGYVFSGDLAEKIFKVSLGIRRLHLEDVYVGICLAKLRVDPVPPPNEFVFNHWRVSYSSCKYSHLITSHQFQPSELIKYWNHLQQNKHNACVNAAKEKAGRYRHRKLH
# What was measured:
# Assay in all cases: glycan array binding signal (z-score within array); higher = stronger binding
# Settings in all cases: glycan notation: IUPAC condensed, linker removed
# Gal(b1-2)Gal = target: Gal(b1-2)Gal
# Procedure, shortened: (§1)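 Arrays were curated from the Consortium for Functional Glycomics database, 3228 in total, and kept only where the protein sequence was available. Binding is expressed as a within-array Z-score. This score was averaged across arrays of the same protein sequence at different concentrations or buffers and across linkers, and negative values can be read as non-binding.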
# Gal(b1-3)Gal = target: Gal(b1-3)Gal
# Procedure, shortened: as §1
# Gal(b1-3)Gal(b1-4)GlcNAc = target: Gal(b1-3)Gal(b1-4)GlcNAc
# Procedure, shortened: as §1
# Gal(b1-3)GalNAc = target: Gal(b1-3)GalNAc
# Procedure, shortened: as §1
# [1] = target: Gal(b1-3)GalNAc(a1-3)[Fuc(a1-2)]Gal(b1-4)Glc
# Procedure, shortened: as §1
# [2] = target: Gal(b1-3)GalNAc(a1-3)[Fuc(a1-2)]Gal(b1-4)GlcNAc
# Procedure, shortened: as §1
# Gal(b1-3)GalNAc(b1-3)Gal = target: Gal(b1-3)GalNAc(b1-3)Gal
# Procedure, shortened: as §1
# [3] = target: Gal(b1-3)GalNAc(b1-3)Gal(a1-4)Gal(b1-4)Glc
# Procedure, shortened: as §1
# [4] = target: Gal(b1-3)GalNAc(b1-4)Gal(b1-4)Glc
# Procedure, shortened: as §1
# [5] = target: Gal(b1-3)GalNAc(b1-4)[Neu5Ac(a2-3)]Gal(b1-4)Glc
# Procedure, shortened: as §1
# Gal(b1-3)GlcNAc = target: Gal(b1-3)GlcNAc
# Procedure, shortened: as §1
# [6] = target: Gal(b1-3)GlcNAc(a1-3)Gal(b1-4)GlcNAc
# Procedure, shortened: as §1
# [7] = target: Gal(b1-3)GlcNAc(a1-6)Gal(b1-4)GlcNAc
# Procedure, shortened: as §1
# Gal(b1-3)GlcNAc(b1-2)Man = target: Gal(b1-3)GlcNAc(b1-2)Man
# Procedure, shortened: as §1
# [8] = target: Gal(b1-3)GlcNAc(b1-2)Man(a1-3)[Gal(b1-3)GlcNAc(b1-2)Man(a1-6)]Man(b1-4)GlcNAc(b1-4)GlcNAc
# Procedure, shortened: as §1
# [9] = target: Gal(b1-3)GlcNAc(b1-2)Man(a1-3)[Gal(b1-3)GlcNAc(b1-2)Man(a1-6)]Man(b1-4)GlcNAc(b1-4)[Fuc(a1-6)]GlcNAc
# Procedure, shortened: as §1
# [10] = target: Gal(b1-3)GlcNAc(b1-2)Man(a1-3)[GlcNAc(b1-4)][Gal(b1-3)GlcNAc(b1-2)Man(a1-6)]Man(b1-4)GlcNAc(b1-4)GlcNAc
# Procedure, shortened: as §1
# [11] = target: Gal(b1-3)GlcNAc(b1-2)[Gal(b1-3)GlcNAc(b1-6)]Man(a1-6)[Gal(b1-3)GlcNAc(b1-2)Man(a1-3)]Man(b1-4)GlcNAc(b1-4)GlcNAc
# Procedure, shortened: as §1
# [12] = target: Gal(b1-3)GlcNAc(b1-3)Gal(b1-3)GlcNAc
# Procedure, shortened: as §1
# [13] = target: Gal(b1-3)GlcNAc(b1-3)Gal(b1-4)Glc
# Procedure, shortened: as §1
# [14] = target: Gal(b1-3)GlcNAc(b1-3)Gal(b1-4)GlcNAc
# Procedure, shortened: as §1
# [15] = target: Gal(b1-3)GlcNAc(b1-3)Gal(b1-4)GlcNAc(b1-2)Man(a1-3)[Gal(b1-3)GlcNAc(b1-3)Gal(b1-4)GlcNAc(b1-2)Man(a1-6)]Man(b1-4)GlcNAc(b1-4)GlcNAc
# Procedure, shortened: as §1
# [16] = target: Gal(b1-3)GlcNAc(b1-3)Gal(b1-4)GlcNAc(b1-2)[Gal(b1-3)GlcNAc(b1-3)Gal(b1-4)GlcNAc(b1-6)]Man(a1-6)[Gal(b1-3)GlcNAc(b1-3)Gal(b1-4)GlcNAc(b1-2)Man(a1-3)]Man(b1-4)GlcNAc(b1-4)[Fuc(a1-6)]GlcNAc
# Procedure, shortened: as §1
# [17] = target: Gal(b1-3)GlcNAc(b1-3)Gal(b1-4)GlcNAc(b1-3)Gal(b1-4)GlcNAc(b1-2)[Gal(b1-3)GlcNAc(b1-3)Gal(b1-4)GlcNAc(b1-3)Gal(b1-4)GlcNAc(b1-6)]Man(a1-6)[Gal(b1-3)GlcNAc(b1-3)Gal(b1-4)GlcNAc(b1-3)Gal(b1-4)GlcNAc(b1-2)Man(a1-3)]Man(b1-4)GlcNAc(b1-4)[Fuc(a1-6)]GlcNAc
# Procedure, shortened: as §1
# [18] = target: Gal(b1-3)GlcNAc(b1-3)Gal(b1-4)GlcNAc(b1-6)[Gal(b1-3)GlcNAc(b1-3)]Gal(b1-4)Glc
# Procedure, shortened: as §1
# [19] = target: Gal(b1-3)GlcNAc(b1-3)Gal(b1-4)[Fuc(a1-3)]GlcNAc
# Procedure, shortened: as §1
# [20] = target: Gal(b1-3)GlcNAc(b1-3)Gal(b1-4)[Fuc(a1-3)]GlcNAc(b1-6)[Gal(b1-3)GlcNAc(b1-3)]Gal(b1-4)Glc
# Procedure, shortened: as §1
# [21] = target: Gal(b1-3)GlcNAc(b1-3)GalNAc
# Procedure, shortened: as §1
# [22] = target: Gal(b1-3)GlcNAc(b1-6)Gal(b1-4)GlcNAc
# Procedure, shortened: as §1
# [23] = target: Gal(b1-3)GlcNAc(b1-6)GalNAc
# Procedure, shortened: as §1
# [24] = target: Gal(b1-3)GlcNAc(b1-6)[Gal(b1-3)]GalNAc
# Procedure, shortened: as §1
# Gal(b1-3)GlcNAc6S = target: Gal(b1-3)GlcNAc6S
# Procedure, shortened: as §1
# [25] = target: Gal(b1-3)[Fuc(a1-4)]GlcNAc
# Procedure, shortened: as §1
# [26] = target: Gal(b1-3)[Fuc(a1-4)]GlcNAc(b1-2)Man
# Procedure, shortened: as §1
# [27] = target: Gal(b1-3)[Fuc(a1-4)]GlcNAc(b1-2)Man(a1-3)[Gal(b1-3)[Fuc(a1-4)]GlcNAc(b1-2)Man(a1-6)]Man(b1-4)GlcNAc(b1-4)[Fuc(a1-6)]GlcNAc
# Procedure, shortened: as §1
# [28] = target: Gal(b1-3)[Fuc(a1-4)]GlcNAc(b1-3)Gal(b1-3)[Fuc(a1-4)]GlcNAc
# Procedure, shortened: as §1
# [29] = target: Gal(b1-3)[Fuc(a1-4)]GlcNAc(b1-3)Gal(b1-4)[Fuc(a1-3)]GlcNAc
# Procedure, shortened: as §1
binder,measurement,setting,value
B1,glycan array binding signal (z-score),Gal(b1-2)Gal,-0.622
same,glycan array binding signal (z-score),Gal(b1-3)Gal,-0.434
same,glycan array binding signal (z-score),Gal(b1-3)Gal(b1-4)GlcNAc,-0.408
same,glycan array binding signal (z-score),Gal(b1-3)GalNAc,-0.159
same,glycan array binding signal (z-score),[1],-0.035
same,glycan array binding signal (z-score),[2],1.09
same,glycan array binding signal (z-score),Gal(b1-3)GalNAc(b1-3)Gal,1.28
same,glycan array binding signal (z-score),[3],0.105
same,glycan array binding signal (z-score),[4],-0.15
same,glycan array binding signal (z-score),[5],0.735
same,glycan array binding signal (z-score),Gal(b1-3)GlcNAc,0.728
same,glycan array binding signal (z-score),[6],-1.03
same,glycan array binding signal (z-score),[7],0.137
same,glycan array binding signal (z-score),Gal(b1-3)GlcNAc(b1-2)Man,-0.913
same,glycan array binding signal (z-score),[8],-0.55
same,glycan array binding signal (z-score),[9],-0.68
same,glycan array binding signal (z-score),[10],-0.55
same,glycan array binding signal (z-score),[11],0.629
same,glycan array binding signal (z-score),[12],0.178
same,glycan array binding signal (z-score),[13],-0.697
same,glycan array binding signal (z-score),[14],0.472
same,glycan array binding signal (z-score),[15],-0.918
same,glycan array binding signal (z-score),[16],1.09
same,glycan array binding signal (z-score),[17],2.97
same,glycan array binding signal (z-score),[18],-1.02
same,glycan array binding signal (z-score),[19],0.109
same,glycan array binding signal (z-score),[20],-0.974
same,glycan array binding signal (z-score),[21],0.129
same,glycan array binding signal (z-score),[22],-0.423
same,glycan array binding signal (z-score),[23],-1.07
same,glycan array binding signal (z-score),[24],0.217
same,glycan array binding signal (z-score),Gal(b1-3)GlcNAc6S,0.164
same,glycan array binding signal (z-score),[25],0.393
same,glycan array binding signal (z-score),[26],-0.42
same,glycan array binding signal (z-score),[27],-0.692
same,glycan array binding signal (z-score),[28],-0.858
same,glycan array binding signal (z-score),[29],0.498

# 2 entries from above, as tab-separated lines:
binder	measurement	setting	value
B1	glycan array binding signal (z-score)	[9]	-0.68
same	glycan array binding signal (z-score)	[10]	-0.55
